{"source": "PubChem BioAssay AID1224830 (NIAID, 2016)", "screen": "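Host factors that control LPS-induced TNF expression in human macrophages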 (primary screen)", "cells": "human THP-1 monocytic leukaemia cells, TNF dual-luciferase reporter clone, PMA-differentiated to macrophage-like cells", "reagents": "siRNA pool against human genes, 50 nM", "duration": "LPS for 4 h, given about 3 days after siRNA transfection", "treatment": "bacterial LPS (TLR4 ligand), 10 ng/ml", "read-out": "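TNF firefly reporter luminescence divided by renilla, normalised to the plate median, then turned into a robust z-score for each replicate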", "direction": "TNF reporter robust z-score: higher = stronger TNF reporter response to LPS", "active means": "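Each well counts as active if its z-score is over 2.8 or under -1.5; controls are left without a call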", "note": "This is an unselected part of about 18,000 deposited reagents. Over the whole deposit, about 2,900 (16%) were called active. 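Calls are made per well; low scores hint the gene aids the LPS response, high scores that it dampens it.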 Repeated entries: four replicate wells of each siRNA pool."}
{"gene": "CASP8", "TNF reporter robust z-score": -0.54, "activity call": "inactive"}
{"gene": "CASP8", "TNF reporter robust z-score": -0.73, "activity call": "inactive"}
{"gene": "CASP8", "TNF reporter robust z-score": -0.36, "activity call": "inactive"}
{"gene": "CASP8", "TNF reporter robust z-score": -0.68, "activity call": "inactive"}
{"gene": "RAB3B", "TNF reporter robust z-score": -0.03, "activity call": "inactive"}
{"gene": "RAB3B", "TNF reporter robust z-score": 0.13, "activity call": "inactive"}
{"gene": "RAB3B", "TNF reporter robust z-score": -0.02, "activity call": "inactive"}
{"gene": "RAB3B", "TNF reporter robust z-score": 0.48, "activity call": "inactive"}
{"gene": "POTEG", "TNF reporter robust z-score": -1.55, "activity call": "active"}
{"gene": "POTEG", "TNF reporter robust z-score": -0.74, "activity call": "inactive"}
{"gene": "POTEG", "TNF reporter robust z-score": -0.89, "activity call": "inactive"}
{"gene": "POTEG", "TNF reporter robust z-score": -1.25, "activity call": "inactive"}
{"gene": "HNRNPAB", "TNF reporter robust z-score": -1.29, "activity call": "inactive"}
{"gene": "HNRNPAB", "TNF reporter robust z-score": 0.44, "activity call": "inactive"}
{"gene": "HNRNPAB", "TNF reporter robust z-score": 0.34, "activity call": "inactive"}
{"gene": "HNRNPAB", "TNF reporter robust z-score": 0.41, "activity call": "inactive"}
{"gene": "FEZF1", "TNF reporter robust z-score": 0.11, "activity call": "inactive"}
{"gene": "FEZF1", "TNF reporter robust z-score": 0.21, "activity call": "inactive"}
{"gene": "FEZF1", "TNF reporter robust z-score": -0.43, "activity call": "inactive"}
{"gene": "FEZF1", "TNF reporter robust z-score": 0.32, "activity call": "inactive"}

2 entries from above in another layout.
gene,TNF reporter robust z-score,activity call
FEZF1,0.21,inactive
FEZF1,-0.43,inactive
